Results from publication PMC13013135 (European Journal of Nuclear Medicine and Molecular Imaging, 2025).

Columns and labels:
[1] = general procedure: Fmoc solid-phase peptide synthesis; Fmoc-Glu(OtBu)-preloaded Wang resin; 2-CTC resin for the Aad analog; COMU (dye conjugation in solution); settings: for conjugation yield: based on starting peptide
[2] = general procedure: Fmoc solid-phase peptide synthesis; 2-CTC; COMU (dye conjugation in solution); settings: whole synthesis, scale of the general procedure 0.33 mmol
[3] = general procedure: Fmoc solid-phase peptide synthesis; Fmoc-Glu(OtBu)-Wang; COMU (dye conjugation in solution); settings: whole synthesis, based on resin-bound Fmoc-Glu(OtBu)-OH, scale of the general procedure 0.33 mmol

Substance | final HPLC purity ([1]; conjugation step) | conjugation yield ([1]; conjugation step) | crude yield [2] | final HPLC purity ([1]; whole synthesis, scale of the general procedure 0.33 mmol) | crude yield [3]
Ac-mas3-k(Sulfo-Cy5)-y-nal-k-Sub-Ku-Aad | >94% | 12% | – | – | –
Ac-mas3-k(Sulfo-Cy5)-y-nal-k-Sub-KuE | >97% | 12% | – | – | –
Ac-mas3-k(Sulfo-Cy7-I)-y-nal-k-Sub-KuE | >96% | 21% | – | – | –
Ac-mas3-k(Sulfo-Cy7-II)-y-nal-k-Sub-KuE | >90% | 9% | – | – | –
Ac-mas3-k-y-nal-k-Sub-Ku-Aad | – | – | 8% | – | –
Ac-mas3-k-y-nal-k-Sub-KuE | – | – | – | >95% | 30%
